Laboratory results reported in the supplement of paper PMC10849652.
The other results are listed elsewhere or left out.

Amino acid sequences for entries named in this document (tags omitted). A change or cut given only in a name is not applied to a line headed by its entry.
UniProt Q8N5A5: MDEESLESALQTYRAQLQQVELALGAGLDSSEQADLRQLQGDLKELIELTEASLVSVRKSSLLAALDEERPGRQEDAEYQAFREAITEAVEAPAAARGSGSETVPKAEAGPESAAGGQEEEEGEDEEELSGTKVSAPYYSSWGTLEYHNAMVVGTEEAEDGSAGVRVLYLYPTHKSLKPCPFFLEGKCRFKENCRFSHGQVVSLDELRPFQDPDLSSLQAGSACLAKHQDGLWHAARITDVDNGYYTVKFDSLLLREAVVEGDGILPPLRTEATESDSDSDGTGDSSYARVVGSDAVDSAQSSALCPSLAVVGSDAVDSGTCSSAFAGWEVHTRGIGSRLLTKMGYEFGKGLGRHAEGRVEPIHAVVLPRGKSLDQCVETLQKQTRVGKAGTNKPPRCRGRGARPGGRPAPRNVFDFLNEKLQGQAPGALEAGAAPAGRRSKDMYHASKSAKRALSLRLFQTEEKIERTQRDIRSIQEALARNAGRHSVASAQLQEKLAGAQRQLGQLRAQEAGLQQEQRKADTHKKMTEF
UniProt Q04917: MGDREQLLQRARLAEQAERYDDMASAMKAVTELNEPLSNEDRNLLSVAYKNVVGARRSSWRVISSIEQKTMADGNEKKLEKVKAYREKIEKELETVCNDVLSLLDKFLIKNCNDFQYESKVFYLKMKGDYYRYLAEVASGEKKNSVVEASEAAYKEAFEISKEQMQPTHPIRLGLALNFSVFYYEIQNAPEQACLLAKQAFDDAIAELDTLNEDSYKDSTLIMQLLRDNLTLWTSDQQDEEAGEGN
UniProt O95070: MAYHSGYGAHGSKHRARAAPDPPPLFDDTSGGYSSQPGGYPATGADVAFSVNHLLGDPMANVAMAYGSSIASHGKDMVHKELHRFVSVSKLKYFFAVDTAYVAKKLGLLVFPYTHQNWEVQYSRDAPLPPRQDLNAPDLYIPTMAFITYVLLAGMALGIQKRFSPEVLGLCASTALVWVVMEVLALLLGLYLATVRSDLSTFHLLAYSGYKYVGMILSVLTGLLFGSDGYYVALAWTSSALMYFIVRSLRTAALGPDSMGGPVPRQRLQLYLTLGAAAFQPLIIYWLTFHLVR
UniProt Q9UGR2: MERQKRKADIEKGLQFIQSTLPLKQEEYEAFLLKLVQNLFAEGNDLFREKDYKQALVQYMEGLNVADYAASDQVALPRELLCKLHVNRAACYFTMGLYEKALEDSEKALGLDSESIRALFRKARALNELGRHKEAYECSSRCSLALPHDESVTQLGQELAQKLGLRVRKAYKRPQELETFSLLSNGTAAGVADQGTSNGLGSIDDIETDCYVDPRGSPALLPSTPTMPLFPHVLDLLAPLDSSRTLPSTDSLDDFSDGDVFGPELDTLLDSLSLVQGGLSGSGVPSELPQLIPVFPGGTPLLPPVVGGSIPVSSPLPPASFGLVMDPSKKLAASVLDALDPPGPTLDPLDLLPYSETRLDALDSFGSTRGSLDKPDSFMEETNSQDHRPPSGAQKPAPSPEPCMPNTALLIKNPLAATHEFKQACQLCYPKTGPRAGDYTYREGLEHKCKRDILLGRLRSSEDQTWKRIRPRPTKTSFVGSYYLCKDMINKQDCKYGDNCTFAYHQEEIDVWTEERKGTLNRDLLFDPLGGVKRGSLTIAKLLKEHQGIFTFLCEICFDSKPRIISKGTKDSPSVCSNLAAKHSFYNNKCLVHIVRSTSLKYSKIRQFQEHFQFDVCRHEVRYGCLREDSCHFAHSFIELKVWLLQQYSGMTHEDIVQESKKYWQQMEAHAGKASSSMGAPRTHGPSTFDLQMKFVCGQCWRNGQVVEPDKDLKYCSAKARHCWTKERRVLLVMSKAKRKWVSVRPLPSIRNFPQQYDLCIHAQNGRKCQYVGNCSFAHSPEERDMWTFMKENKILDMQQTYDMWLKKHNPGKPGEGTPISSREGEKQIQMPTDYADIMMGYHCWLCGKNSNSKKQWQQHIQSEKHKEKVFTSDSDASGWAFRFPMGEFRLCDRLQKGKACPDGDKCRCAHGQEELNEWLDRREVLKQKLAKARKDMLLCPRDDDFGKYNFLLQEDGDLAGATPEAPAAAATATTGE
UniProt Q96TA2: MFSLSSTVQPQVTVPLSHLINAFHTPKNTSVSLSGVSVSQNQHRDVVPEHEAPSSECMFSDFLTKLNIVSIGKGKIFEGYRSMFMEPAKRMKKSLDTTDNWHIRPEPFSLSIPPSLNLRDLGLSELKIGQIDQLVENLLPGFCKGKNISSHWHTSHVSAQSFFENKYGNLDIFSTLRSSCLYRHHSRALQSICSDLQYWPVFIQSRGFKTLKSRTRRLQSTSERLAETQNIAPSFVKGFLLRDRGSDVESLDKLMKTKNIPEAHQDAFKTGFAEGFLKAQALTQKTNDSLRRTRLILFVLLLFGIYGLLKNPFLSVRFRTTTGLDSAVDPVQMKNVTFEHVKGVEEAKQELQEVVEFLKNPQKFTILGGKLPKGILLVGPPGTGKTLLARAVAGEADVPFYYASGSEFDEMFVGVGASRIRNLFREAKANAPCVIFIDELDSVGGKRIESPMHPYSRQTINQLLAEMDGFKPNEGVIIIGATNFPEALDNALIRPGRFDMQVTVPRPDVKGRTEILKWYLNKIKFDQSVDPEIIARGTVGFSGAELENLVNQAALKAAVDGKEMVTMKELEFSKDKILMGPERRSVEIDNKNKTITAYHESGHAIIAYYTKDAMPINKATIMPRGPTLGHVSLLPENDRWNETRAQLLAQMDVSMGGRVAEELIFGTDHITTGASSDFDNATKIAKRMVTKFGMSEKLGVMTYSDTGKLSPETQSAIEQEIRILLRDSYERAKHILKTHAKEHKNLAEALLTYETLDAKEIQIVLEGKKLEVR
UniProt O95405: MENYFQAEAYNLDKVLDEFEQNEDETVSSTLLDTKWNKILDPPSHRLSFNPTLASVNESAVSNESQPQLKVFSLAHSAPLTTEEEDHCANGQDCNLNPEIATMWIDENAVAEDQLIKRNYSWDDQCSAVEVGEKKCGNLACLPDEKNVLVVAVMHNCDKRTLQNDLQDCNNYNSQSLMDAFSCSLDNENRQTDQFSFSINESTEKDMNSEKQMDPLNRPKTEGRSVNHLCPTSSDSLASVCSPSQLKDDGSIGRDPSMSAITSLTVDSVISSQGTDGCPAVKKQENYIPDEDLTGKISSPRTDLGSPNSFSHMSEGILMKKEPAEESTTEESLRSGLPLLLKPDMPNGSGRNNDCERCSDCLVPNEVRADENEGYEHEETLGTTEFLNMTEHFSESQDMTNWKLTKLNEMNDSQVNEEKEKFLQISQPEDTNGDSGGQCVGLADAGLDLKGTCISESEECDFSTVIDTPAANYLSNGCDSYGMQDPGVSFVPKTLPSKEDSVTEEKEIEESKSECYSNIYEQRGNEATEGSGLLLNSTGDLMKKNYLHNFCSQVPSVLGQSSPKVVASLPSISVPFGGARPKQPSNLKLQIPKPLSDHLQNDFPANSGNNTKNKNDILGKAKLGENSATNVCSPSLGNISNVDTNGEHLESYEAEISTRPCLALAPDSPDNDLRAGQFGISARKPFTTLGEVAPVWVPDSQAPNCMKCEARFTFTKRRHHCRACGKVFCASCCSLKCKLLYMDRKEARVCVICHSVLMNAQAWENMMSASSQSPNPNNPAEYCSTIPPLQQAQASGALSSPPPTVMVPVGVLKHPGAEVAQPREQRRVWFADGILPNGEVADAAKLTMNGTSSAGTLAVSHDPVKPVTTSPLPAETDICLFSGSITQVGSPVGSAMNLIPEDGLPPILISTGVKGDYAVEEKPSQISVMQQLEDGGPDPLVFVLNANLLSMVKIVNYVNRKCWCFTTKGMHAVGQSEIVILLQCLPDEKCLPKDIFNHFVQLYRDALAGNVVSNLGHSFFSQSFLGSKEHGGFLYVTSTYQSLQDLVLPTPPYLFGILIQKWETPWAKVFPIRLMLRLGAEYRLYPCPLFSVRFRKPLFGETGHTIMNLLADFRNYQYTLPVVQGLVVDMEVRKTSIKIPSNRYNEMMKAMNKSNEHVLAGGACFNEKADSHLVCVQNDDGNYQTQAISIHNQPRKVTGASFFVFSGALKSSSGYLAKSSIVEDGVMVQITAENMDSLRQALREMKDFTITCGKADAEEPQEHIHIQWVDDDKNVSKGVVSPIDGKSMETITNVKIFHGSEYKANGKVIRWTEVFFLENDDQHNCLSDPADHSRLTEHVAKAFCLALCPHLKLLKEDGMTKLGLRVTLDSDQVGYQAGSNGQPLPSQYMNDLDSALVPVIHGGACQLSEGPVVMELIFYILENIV
UniProt O43542: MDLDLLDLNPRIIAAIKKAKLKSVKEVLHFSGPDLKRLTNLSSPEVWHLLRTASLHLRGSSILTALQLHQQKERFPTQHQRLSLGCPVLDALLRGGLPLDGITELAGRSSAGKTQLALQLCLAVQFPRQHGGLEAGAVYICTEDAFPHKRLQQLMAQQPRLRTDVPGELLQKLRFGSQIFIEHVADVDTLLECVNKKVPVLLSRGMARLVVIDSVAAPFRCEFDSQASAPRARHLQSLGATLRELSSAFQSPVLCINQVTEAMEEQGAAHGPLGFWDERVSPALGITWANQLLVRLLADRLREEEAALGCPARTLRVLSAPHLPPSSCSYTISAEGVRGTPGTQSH
UniProt Q96JP5: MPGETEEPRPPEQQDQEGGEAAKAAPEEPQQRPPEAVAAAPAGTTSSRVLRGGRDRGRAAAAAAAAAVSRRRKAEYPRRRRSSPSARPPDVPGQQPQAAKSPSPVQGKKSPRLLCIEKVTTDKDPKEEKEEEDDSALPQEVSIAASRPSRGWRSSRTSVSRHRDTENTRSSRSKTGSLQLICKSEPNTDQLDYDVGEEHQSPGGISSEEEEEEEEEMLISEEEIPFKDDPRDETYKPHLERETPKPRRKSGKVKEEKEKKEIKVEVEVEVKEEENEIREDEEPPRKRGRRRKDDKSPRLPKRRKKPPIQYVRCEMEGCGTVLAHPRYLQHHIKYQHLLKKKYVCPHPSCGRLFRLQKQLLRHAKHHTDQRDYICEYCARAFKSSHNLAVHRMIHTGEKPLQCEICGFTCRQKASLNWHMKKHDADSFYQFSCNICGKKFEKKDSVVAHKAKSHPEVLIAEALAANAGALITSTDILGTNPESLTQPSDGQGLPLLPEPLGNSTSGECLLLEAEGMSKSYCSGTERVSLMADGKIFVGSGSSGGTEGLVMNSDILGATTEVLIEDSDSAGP
UniProt P13010: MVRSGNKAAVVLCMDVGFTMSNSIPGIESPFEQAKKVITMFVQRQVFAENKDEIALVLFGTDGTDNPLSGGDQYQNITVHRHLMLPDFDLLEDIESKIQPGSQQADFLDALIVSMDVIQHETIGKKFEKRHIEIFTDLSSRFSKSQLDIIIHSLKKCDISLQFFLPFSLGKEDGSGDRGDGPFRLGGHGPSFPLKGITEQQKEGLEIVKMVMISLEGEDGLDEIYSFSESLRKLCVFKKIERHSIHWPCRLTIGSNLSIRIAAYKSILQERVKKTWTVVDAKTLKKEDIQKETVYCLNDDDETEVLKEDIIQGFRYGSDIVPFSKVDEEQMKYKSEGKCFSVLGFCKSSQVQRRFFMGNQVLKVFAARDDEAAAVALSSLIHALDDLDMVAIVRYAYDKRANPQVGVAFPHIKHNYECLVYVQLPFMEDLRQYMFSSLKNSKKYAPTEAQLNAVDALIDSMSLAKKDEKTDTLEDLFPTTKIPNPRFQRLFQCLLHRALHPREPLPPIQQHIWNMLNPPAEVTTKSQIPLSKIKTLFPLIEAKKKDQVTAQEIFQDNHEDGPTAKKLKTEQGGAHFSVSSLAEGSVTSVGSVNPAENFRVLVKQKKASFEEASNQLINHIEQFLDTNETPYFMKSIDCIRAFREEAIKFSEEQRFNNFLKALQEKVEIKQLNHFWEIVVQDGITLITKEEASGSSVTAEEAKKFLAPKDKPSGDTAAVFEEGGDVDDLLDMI
UniProt Q8N5P1: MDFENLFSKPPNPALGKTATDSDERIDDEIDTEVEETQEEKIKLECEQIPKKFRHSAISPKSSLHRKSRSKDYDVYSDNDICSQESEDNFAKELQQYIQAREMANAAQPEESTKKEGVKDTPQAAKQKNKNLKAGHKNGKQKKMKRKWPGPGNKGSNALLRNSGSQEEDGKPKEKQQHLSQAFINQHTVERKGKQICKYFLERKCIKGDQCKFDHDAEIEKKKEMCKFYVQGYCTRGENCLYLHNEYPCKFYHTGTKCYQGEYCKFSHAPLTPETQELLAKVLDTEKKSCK
UniProt O95159: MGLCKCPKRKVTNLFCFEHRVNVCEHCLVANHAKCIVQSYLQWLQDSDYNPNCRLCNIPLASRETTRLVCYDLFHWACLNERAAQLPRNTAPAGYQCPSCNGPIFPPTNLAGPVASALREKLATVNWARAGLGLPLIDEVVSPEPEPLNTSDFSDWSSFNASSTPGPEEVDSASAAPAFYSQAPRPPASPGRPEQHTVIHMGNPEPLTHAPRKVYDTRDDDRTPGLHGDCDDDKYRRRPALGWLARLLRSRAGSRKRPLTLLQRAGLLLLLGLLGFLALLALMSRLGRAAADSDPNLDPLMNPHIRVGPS

compound: CC1=C2C(=CC=C1)N=C(N(C2=O)C3=CC=CC=C3C)CN4C=NC5=C(N=CN=C54)N; assay: log2 fold change, soluble protein after heating vs DMSO (PISA); higher = thermal stabilisation; K562 lysate, 10 uM; active = over 0.2 and 3.5 SD of the protein, either way, in both replicates (recomputed)
In short: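 To prepare the extract, K562 pellets were dounce-homogenised in PBS pH 7.4 with 1 mM MgCl2, giving crude material at 1 mg/mL protein. This was treated with 10 μM compound for 30 min, then heated in aliquots for 3 min over 48°C-58°C before pooling and addition of NP-40 to 0.5% at 4°C. Centrifugation at 21,000xg for 90 min left soluble protein in the supernatant, which TMTpro 16plex LC-MS/MS quantified with equalised channel sums. Results are log-two fold changes in thermal stability compared with solvent controls, from duplicates.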

Target	log2 fold change
ZGPAT (UniProt Q8N5A5)	inactive: 0.114
YWHAH (UniProt Q04917)	inactive: -0.034
YIF1A (UniProt O95070)	inactive: 0.009
ZC3H7B (UniProt Q9UGR2)	inactive: -0.084
YME1L1 (UniProt Q96TA2)	inactive: 0.032
ZC3H13 (UniProt Q5T200)	inactive: 0.013
YWHAE (UniProt P62258)	inactive: 0.012
ZC3H14 (UniProt Q6PJT7)	inactive: -0.031
ZBTB3 (UniProt Q9H5J0)	inactive: 0.137
ZFPM2 (UniProt Q8WW38)	inactive: -0.042
ZFYVE9 (UniProt O95405)	inactive: -0.002
XPO7 (UniProt Q9UIA9)	inactive: 0.04
XRCC3 (UniProt O43542)	inactive: -0.103
ZER1 (UniProt Q7Z7L7)	inactive: 0.057
ZFP91 (UniProt Q96JP5)	inactive: -0.047
YBX3 isoform 2 (UniProt P16989)	inactive: 0.051
XRCC5 (UniProt P13010)	inactive: 0.014
YY1 (UniProt P25490)	inactive: 0.008
YARS2 (UniProt Q9Y2Z4)	inactive: 0.046
ZCCHC9 (UniProt Q8N567)	inactive: -0.141
YRDC (UniProt Q86U90)	inactive: -0.046
ZC3H8 (UniProt Q8N5P1)	inactive: 0.061
XPOT (UniProt O43592)	inactive: 0.037
ZFPL1 (UniProt O95159)	inactive: -0.006

Some values from the entries so far.
Under log2 fold change, YIF1A (UniProt O95070) is listed with inactive: 0.009
Under log2 fold change, YY1 (UniProt P25490) is listed with inactive: 0.008
